In PubChem BioAssay AID188 (DTP/NCI, 2004):
Values are animals surviving of animals treated; these mice carried no tumour. Counts of survivors are from the toxicity check (mostly the fifth day) where no day follows; animals may have died later. Schedule codes are those of the source, read here as Q, the interval in days (D) or hours (H), X, the number of doses. Some entries were tested several times; the values are given in rising order.

Test system: CD2F1 mice, nontumored, toxicity/survival
Test: NCI In Vivo Anticancer Drug Screen. Data for tumor model Nontumored Animals (Toxicity Test) in CD2F1 (CDF1) mice

## NC(=O)c1cn(C2OC(CO)C(O)C2O)c2ncnc(N)c12 (stereo not drawn)
dose: 0.06 mg/kg/injection, schedule: Q03HX024 (ip), vehicle: saline
  survivor count: 8 of 8
dose: 0.13 mg/kg/injection, schedule: Q01DX009 (ip), vehicle: saline
  survivor count: 8 of 8
dose: 0.13 mg/kg/injection, schedule: Q03HX008 (ip), vehicle: saline
  survivor count: 8 of 8
dose: 0.13 mg/kg/injection, schedule: Q03HX016 (ip), vehicle: saline
  survivor count: 8 of 8
dose: 0.13 mg/kg/injection, schedule: Q03HX024 (ip), vehicle: saline
  survivor count: 7 of 8 and 8 of 8
dose: 0.25 mg/kg/injection, schedule: Q01DX009 (ip), vehicle: saline
  survivor count: 8 of 8
dose: 0.25 mg/kg/injection, schedule: Q03HX008 (ip), vehicle: saline
  survivor count: 8 of 8
dose: 0.25 mg/kg/injection, schedule: Q03HX016 (ip), vehicle: saline
  survivor count: 8 of 8
dose: 0.25 mg/kg/injection, schedule: Q03HX024 (ip), vehicle: saline
  survivor count: 8 of 8
dose: 0.5 mg/kg/injection, schedule: Q01DX009 (ip), vehicle: saline
  survivor count: 8 of 8
dose: 0.5 mg/kg/injection, schedule: Q03HX008 (ip), vehicle: saline
  survivor count: 8 of 8
dose: 0.5 mg/kg/injection, schedule: Q03HX016 (ip), vehicle: saline
  survivor count: 8 of 8
dose: 0.5 mg/kg/injection, schedule: Q03HX024 (ip), vehicle: saline
  survivor count: 6 of 8 and 8 of 8
dose: 0.5 mg/kg/injection, schedule: Q04DX003 (ip), vehicle: saline
  survivor count: 8 of 8
dose: 1.0 mg/kg/injection, schedule: Q01DX001 (ip), vehicle: saline
  survivor count: 8 of 8
dose: 1.0 mg/kg/injection, schedule: Q01DX009 (ip), vehicle: saline
  survivor count: 8 of 8
dose: 1.0 mg/kg/injection, schedule: Q01DX009 (oral), vehicle: saline
  survivor count: 8 of 8
dose: 1.0 mg/kg/injection, schedule: Q03HX008 (ip), vehicle: saline
  survivor count: 3 of 8 and 8 of 8
dose: 1.0 mg/kg/injection, schedule: Q03HX016 (ip), vehicle: saline
  survivor count: 4 of 8 and 8 of 8
dose: 1.0 mg/kg/injection, schedule: Q03HX024 (ip), vehicle: saline
  survivor count: 6 of 8 and 8 of 8
dose: 1.0 mg/kg/injection, schedule: Q04DX003 (ip), vehicle: saline
  survivor count: 8 of 8
dose: 1.0 mg/kg/injection, schedule: Q08DX002 (ip), vehicle: saline
  survivor count: 8 of 8
dose: 2.0 mg/kg/injection, schedule: Q01DX001 (ip), vehicle: saline
  survivor count: 8 of 8
dose: 2.0 mg/kg/injection, schedule: Q01DX001 (oral), vehicle: saline
  survivor count: 8 of 8
dose: 2.0 mg/kg/injection, schedule: Q01DX009 (ip), vehicle: saline
  survivor count: 8 of 8
dose: 2.0 mg/kg/injection, schedule: Q01DX009 (oral), vehicle: saline
  survivor count: 8 of 8
dose: 2.0 mg/kg/injection, schedule: Q03HX008 (ip), vehicle: saline
  survivor count: 0 of 8 and 1 of 8
dose: 2.0 mg/kg/injection, schedule: Q03HX016 (ip), vehicle: saline
  survivor count: 0 of 8 and 4 of 8
dose: 2.0 mg/kg/injection, schedule: Q04DX003 (ip), vehicle: saline
  survivor count: 8 of 8
dose: 2.0 mg/kg/injection, schedule: Q08DX002 (ip), vehicle: saline
  survivor count: 8 of 8
dose: 4.0 mg/kg/injection, schedule: Q01DX001 (ip), vehicle: saline
  survivor count: 8 of 8
dose: 4.0 mg/kg/injection, schedule: Q01DX001 (oral), vehicle: saline
  survivor count: 8 of 8
dose: 4.0 mg/kg/injection, schedule: Q01DX009 (ip), vehicle: saline
  survivor count: 4 of 8
dose: 4.0 mg/kg/injection, schedule: Q01DX009 (oral), vehicle: saline
  survivor count: 8 of 8
dose: 4.0 mg/kg/injection, schedule: Q04DX003 (ip), vehicle: saline
  survivor count: 8 of 8
dose: 4.0 mg/kg/injection, schedule: Q08DX002 (ip), vehicle: saline
  survivor count: 8 of 8
dose: 8.0 mg/kg/injection, schedule: Q01DX001 (ip), vehicle: saline
  survivor count: 6 of 8 and 7 of 8
dose: 8.0 mg/kg/injection, schedule: Q01DX001 (oral), vehicle: saline
  survivor count: 8 of 8
dose: 8.0 mg/kg/injection, schedule: Q01DX009 (oral), vehicle: saline
  survivor count: 2 of 8
dose: 8.0 mg/kg/injection, schedule: Q04DX003 (ip), vehicle: saline
  survivor count: 7 of 8
dose: 8.0 mg/kg/injection, schedule: Q08DX002 (ip), vehicle: saline
  survivor count: 6 of 8 and 8 of 8
dose: 16.0 mg/kg/injection, schedule: Q01DX001 (ip), vehicle: saline
  survivor count: 0 of 8
dose: 16.0 mg/kg/injection, schedule: Q01DX001 (oral), vehicle: saline
  survivor count: 5 of 8
dose: 16.0 mg/kg/injection, schedule: Q01DX009 (oral), vehicle: saline
  survivor count: 0 of 8
dose: 16.0 mg/kg/injection, schedule: Q08DX002 (ip), vehicle: saline
  survivor count: 0 of 8
dose: 32.0 mg/kg/injection, schedule: Q01DX001 (oral), vehicle: saline
  survivor count: 6 of 8

## CC(C)CCCCCCCCCCCCC(=O)NCC(=O)NC1C(O)C(O)C(Nc2ncnc3nc[nH]c23)OC1C(O)CO (stereo not drawn)
dose: 0.06 mg/kg/injection, schedule: Q01DX009 (ip), vehicle: Klucel (hydroxypropylcellulose) (HPC)
  survivor count: 8 of 8
dose: 0.13 mg/kg/injection, schedule: Q01DX009 (ip), vehicle: Klucel (hydroxypropylcellulose) (HPC)
  survivor count: 8 of 8
dose: 0.25 mg/kg/injection, schedule: Q01DX009 (ip), vehicle: Klucel (hydroxypropylcellulose) (HPC)
  survivor count: 8 of 8
dose: 0.25 mg/kg/injection, schedule: Q03HX008 (ip), vehicle: Klucel (hydroxypropylcellulose) (HPC)
  survivor count: 8 of 8
dose: 0.25 mg/kg/injection, schedule: Q03HX016 (ip), vehicle: Klucel (hydroxypropylcellulose) (HPC)
  survivor count: 8 of 8
dose: 0.25 mg/kg/injection, schedule: Q03HX024 (ip), vehicle: Klucel (hydroxypropylcellulose) (HPC)
  survivor count: 8 of 8
dose: 0.5 mg/kg/injection, schedule: Q01DX009 (ip), vehicle: Klucel (hydroxypropylcellulose) (HPC)
  survivor count: 8 of 8
dose: 0.5 mg/kg/injection, schedule: Q01DX009 (oral), vehicle: Klucel (hydroxypropylcellulose) (HPC)
  survivor count: 8 of 8
dose: 0.5 mg/kg/injection, schedule: Q03HX008 (ip), vehicle: Klucel (hydroxypropylcellulose) (HPC)
  survivor count: 8 of 8
dose: 0.5 mg/kg/injection, schedule: Q03HX016 (ip), vehicle: Klucel (hydroxypropylcellulose) (HPC)
  survivor count: 8 of 8
dose: 0.5 mg/kg/injection, schedule: Q03HX024 (ip), vehicle: Klucel (hydroxypropylcellulose) (HPC)
  survivor count: 8 of 8
dose: 1.0 mg/kg/injection, schedule: Q01DX009 (ip), vehicle: Klucel (hydroxypropylcellulose) (HPC)
  survivor count: 8 of 8
dose: 1.0 mg/kg/injection, schedule: Q01DX009 (oral), vehicle: Klucel (hydroxypropylcellulose) (HPC)
  survivor count: 8 of 8
dose: 1.0 mg/kg/injection, schedule: Q03HX008 (ip), vehicle: Klucel (hydroxypropylcellulose) (HPC)
  survivor count: 8 of 8
dose: 1.0 mg/kg/injection, schedule: Q03HX016 (ip), vehicle: Klucel (hydroxypropylcellulose) (HPC)
  survivor count: 8 of 8
dose: 1.0 mg/kg/injection, schedule: Q03HX024 (ip), vehicle: Klucel (hydroxypropylcellulose) (HPC)
  survivor count: 8 of 8
dose: 2.0 mg/kg/injection, schedule: Q01DX001 (ip), vehicle: Klucel (hydroxypropylcellulose) (HPC)
  survivor count: 8 of 8
dose: 2.0 mg/kg/injection, schedule: Q01DX009 (oral), vehicle: Klucel (hydroxypropylcellulose) (HPC)
  survivor count: 8 of 8
dose: 2.0 mg/kg/injection, schedule: Q03HX008 (ip), vehicle: Klucel (hydroxypropylcellulose) (HPC)
  survivor count: 8 of 8
dose: 2.0 mg/kg/injection, schedule: Q03HX016 (ip), vehicle: Klucel (hydroxypropylcellulose) (HPC)
  survivor count: 8 of 8
dose: 2.0 mg/kg/injection, schedule: Q03HX024 (ip), vehicle: Klucel (hydroxypropylcellulose) (HPC)
  survivor count: 8 of 8
dose: 2.0 mg/kg/injection, schedule: Q04DX003 (ip), vehicle: Klucel (hydroxypropylcellulose) (HPC)
  survivor count: 8 of 8
dose: 2.0 mg/kg/injection, schedule: Q08DX002 (ip), vehicle: Klucel (hydroxypropylcellulose) (HPC)
  survivor count: 8 of 8
dose: 4.0 mg/kg/injection, schedule: Q01DX001 (ip), vehicle: Klucel (hydroxypropylcellulose) (HPC)
  survivor count: 8 of 8
dose: 4.0 mg/kg/injection, schedule: Q01DX009 (oral), vehicle: Klucel (hydroxypropylcellulose) (HPC)
  survivor count: 8 of 8
dose: 4.0 mg/kg/injection, schedule: Q04DX003 (ip), vehicle: Klucel (hydroxypropylcellulose) (HPC)
  survivor count: 8 of 8
dose: 4.0 mg/kg/injection, schedule: Q08DX002 (ip), vehicle: Klucel (hydroxypropylcellulose) (HPC)
  survivor count: 8 of 8
dose: 8.0 mg/kg/injection, schedule: Q01DX001 (ip), vehicle: Klucel (hydroxypropylcellulose) (HPC)
  survivor count: 8 of 8
dose: 8.0 mg/kg/injection, schedule: Q04DX003 (ip), vehicle: Klucel (hydroxypropylcellulose) (HPC)
  survivor count: 8 of 8
dose: 8.0 mg/kg/injection, schedule: Q08DX002 (ip), vehicle: Klucel (hydroxypropylcellulose) (HPC)
  survivor count: 8 of 8
dose: 16.0 mg/kg/injection, schedule: Q01DX001 (ip), vehicle: Klucel (hydroxypropylcellulose) (HPC)
  survivor count: 8 of 8
dose: 16.0 mg/kg/injection, schedule: Q01DX001 (oral), vehicle: Klucel (hydroxypropylcellulose) (HPC)
  survivor count: 8 of 8
dose: 16.0 mg/kg/injection, schedule: Q04DX003 (ip), vehicle: Klucel (hydroxypropylcellulose) (HPC)
  survivor count: 8 of 8
dose: 16.0 mg/kg/injection, schedule: Q08DX002 (ip), vehicle: Klucel (hydroxypropylcellulose) (HPC)
  survivor count: 8 of 8
dose: 32.0 mg/kg/injection, schedule: Q01DX001 (oral), vehicle: Klucel (hydroxypropylcellulose) (HPC)
  survivor count: 8 of 8
dose: 64.0 mg/kg/injection, schedule: Q01DX001 (oral), vehicle: Klucel (hydroxypropylcellulose) (HPC)
  survivor count: 8 of 8
dose: 128.0 mg/kg/injection, schedule: Q01DX001 (oral), vehicle: Klucel (hydroxypropylcellulose) (HPC)
  survivor count: 8 of 8
